The values below come from publication PMC3814370, “Functional assignment of KEOPS/EKC complex subunits in the biosynthesis of the universal t^6A tRNA modification” (Nucleic Acids Research, 2013).

By UniProt entry, the sequences of proteins in these tests, tags left out.
UniProt Q9UXT7: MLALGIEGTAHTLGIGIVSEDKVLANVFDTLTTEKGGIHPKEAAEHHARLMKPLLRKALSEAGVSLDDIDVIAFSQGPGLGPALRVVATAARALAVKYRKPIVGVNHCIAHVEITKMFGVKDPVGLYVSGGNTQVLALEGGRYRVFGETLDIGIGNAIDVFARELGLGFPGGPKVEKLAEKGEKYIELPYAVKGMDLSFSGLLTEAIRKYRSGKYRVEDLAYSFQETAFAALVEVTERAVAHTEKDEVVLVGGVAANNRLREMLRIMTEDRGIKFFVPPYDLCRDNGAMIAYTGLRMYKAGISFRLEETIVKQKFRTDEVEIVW

Assay [1] deals with Kae1 from Pyrococcus abyssi (Pyrococcus abyssi) (UniProt Q9UXT7). In words: co-purification of co-expressed proteins (Ni-NTA, then gel filtration); subunits co-expressed in E. coli; extract heated at 65°C for 15 min; His-tagged proteins purified on Ni-NTA, then Superdex 200 in storage buffer (LBs); fractions analysed by SDS-PAGE.
For assay [2], the target named is Kae1–Bud32 binary complex from Pyrococcus abyssi (Pyrococcus abyssi) (UniProt Q9UXT7+Q9UYB9). In words: SEC; as a4, with Cgi121 added in excess to the mixture of the Pcc1–Kae1 and Kae1–Bud32 binary complexes; both purified.
For assay [3], the target named is Cgi121 from Pyrococcus abyssi (Pyrococcus abyssi) (UniProt Q9UZ62). In words: SEC; gel filtration of purified proteins and complexes on Superdex 200 in storage buffer (LBs); apparent molecular mass (Supplementary Figure S2); both purified. On the technique in general: Size exclusion chromatography separates by hydrodynamic size, large species first.
For assay [4], the target named is T1, Bud32 from Pyrococcus abyssi (Pyrococcus abyssi) (UniProt Q9UYB9).
T1 sequence: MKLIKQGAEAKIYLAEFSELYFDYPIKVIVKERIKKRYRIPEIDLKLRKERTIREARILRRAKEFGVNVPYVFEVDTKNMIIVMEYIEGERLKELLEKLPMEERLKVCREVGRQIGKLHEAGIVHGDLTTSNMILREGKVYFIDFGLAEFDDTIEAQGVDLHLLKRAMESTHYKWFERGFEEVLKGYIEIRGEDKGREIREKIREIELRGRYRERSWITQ
In words: co-purification of co-expressed proteins (Ni-NTA, then gel filtration); subunits co-expressed in E. coli; extract heated at 65°C for 15 min; His-tagged proteins purified on Ni-NTA, then Superdex 200 in storage buffer (LBs); fractions analysed by SDS-PAGE.

Assay [5] deals with Pcc1–Kae1 binary complex from Pyrococcus abyssi (Pyrococcus abyssi) (UniProt Q9V1Z9+Q9UXT7). In words: SEC; proteins or subcomplexes (100 µg each) mixed in LBs in 200 µl, 20 min at 4°C or room temperature, then Superdex 200 10/300 in LBs; eluted proteins analysed by SDS-PAGE (Supplementary Figure S3); both purified.

These are yes or no findings as the source states them, for the method shown. Some entries that bind do so weakly or less than the wild type.

B1: Pcc1 from Pyrococcus abyssi (protein, UniProt Q9V1Z9 1-82)
chain: MKPKRVQGKIVIEFPSEDIAEVVYTSVLYEHVSVPYRRSRVNFRREGRRIVLEIEANDSSAMRGTVNSYLRWIKVALDVLNI
Regarding B1, in assay [1], the binding result was “binds”.

B2: Cgi121 from Pyrococcus abyssi (protein, UniProt Q9UZ62 1-171)
chain: MTPKFKNFKHDNSGQVETYLFEVISKYTMLEIKTKFGKLCIAKVKLASESIERALNLCNDNCQIVSAKCHEEVIFATILAIKAFSSGRNTAKTIKGEILLRLAGVKQIKDAIKIIGARKGENLIIYFGVSDPCSSLKDFISSLGLREEPLKPCDEDEVKRGFERAAIIEAL
On to B2, for which the binding entry in assay [2] was “binds”; in assay [3], “no binding”; in assay [4] it was “binds”.

B3: Bud32–Cgi121 binary complex from Pyrococcus abyssi (complex, UniProt Q9UYB9 1-220; Q9UZ62 1-171)
chain 1: MKLIKQGAEAKIYLAEFSELYFDYPIKVIVKERIKKRYRIPEIDLKLRKERTIREARILRRAKEFGVNVPYVFEVDTKNMIIVMEYIEGERLKELLEKLPMEERLKVCREVGRQIGKLHEAGIVHGDLTTSNMILREGKVYFIDFGLAEFDDTIEAQGVDLHLLKRAMESTHYKWFERGFEEVLKGYIEIRGEDKGREIREKIREIELRGRYRERSWITQ
chain 2: MTPKFKNFKHDNSGQVETYLFEVISKYTMLEIKTKFGKLCIAKVKLASESIERALNLCNDNCQIVSAKCHEEVIFATILAIKAFSSGRNTAKTIKGEILLRLAGVKQIKDAIKIIGARKGENLIIYFGVSDPCSSLKDFISSLGLREEPLKPCDEDEVKRGFERAAIIEAL
Turning to B3, in assay [5], the binding result is reported as “binds”.

B4: Bud32 from Pyrococcus abyssi (enzyme, UniProt Q9UYB9 1-220)
chain: MKLIKQGAEAKIYLAEFSELYFDYPIKVIVKERIKKRYRIPEIDLKLRKERTIREARILRRAKEFGVNVPYVFEVDTKNMIIVMEYIEGERLKELLEKLPMEERLKVCREVGRQIGKLHEAGIVHGDLTTSNMILREGKVYFIDFGLAEFDDTIEAQGVDLHLLKRAMESTHYKWFERGFEEVLKGYIEIRGEDKGREIREKIREIELRGRYRERSWITQ
Take B4: in assay [1], the binding entry was “binds”.
